# According to PubChem BioAssay AID652054 (National Center for Advancing Translational Sciences (NCATS), 2013):
# Sequences of proteins named here, by UniProt entry; tags and fusion partners are left off.
# UniProt P35462, whole entry, looked up: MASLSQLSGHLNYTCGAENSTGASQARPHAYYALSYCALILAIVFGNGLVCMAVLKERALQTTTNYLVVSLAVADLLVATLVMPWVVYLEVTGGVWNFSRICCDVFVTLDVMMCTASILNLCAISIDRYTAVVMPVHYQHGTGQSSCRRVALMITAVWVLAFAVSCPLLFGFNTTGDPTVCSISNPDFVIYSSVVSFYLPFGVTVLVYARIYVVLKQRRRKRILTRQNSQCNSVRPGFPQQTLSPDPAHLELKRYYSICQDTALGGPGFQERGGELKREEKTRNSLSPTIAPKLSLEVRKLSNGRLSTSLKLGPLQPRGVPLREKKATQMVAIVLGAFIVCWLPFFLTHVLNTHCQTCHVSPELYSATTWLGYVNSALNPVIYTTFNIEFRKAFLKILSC
# The campaign covered roughly 360,000 compounds. About 9,100 (2.5%) were called active. This list was built around the results that the source calls inconclusive (neither active nor inactive); the mix of calls is not that of the screen. No stated cut-off is given here; in the data, active means max response below about -50%; inconclusive means no clear call, values can overlap the other calls; inactive means above that.
# Target: D(3) dopamine receptor (Homo sapiens) (UniProt P35462)
# Test: qHTS of D3 Dopamine Receptor Antagonist: qHTS
# Conditions: D3R cells, DiscoveRx beta-arrestin luminescence, antagonist mode; hits give low values
# Outline: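 Cells plated overnight at 1500 cells/well, then exposed to library compounds with dopamine controls for 90 minutes at 37 degrees C. DiscoveRx reagent added for 30–60 minutes at room temperature; luminescence read, quantitative HTS format.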
# On the % scale 0 is the no-effect control and ±100 the full control effect.
row,Structure (SMILES),"max response, negative = inhibition"
1,CCN(Cc1ccccc1)S(=O)(=O)c1ccc(C(=O)N(CCCN(C)C)c2nc3cc4c(cc3s2)OCCO4)cc1,inconclusive: -43.6%
2,CC(C)NC(=O)c1ccc(CN2CCC(Cc3ccccc3)CC2)cc1,active: -79.9%
3,NC(=S)N/N=C/c1ccc(C23CC4CC(CC(C4)C2)C3)cc1,active: -88.8%
4,CC(C)(C)n1nnnc1C(c1cccs1)N(Cc1cccnc1)Cc1ccccc1Cl (stereo unspecified),active: -58%
5,Cn1c(Cc2csc(N)n2)nnc1SCC(=O)NC1CCCCC1,active: -57.4%
6,O=C(NCCCN1CCN(c2ccccc2F)CC1)Nc1ccc(F)cc1,inconclusive: -38.1%
7,Cc1ccccc1NC(=O)c1ccc(CN2CCC(Cc3ccccc3)CC2)cc1,active: -63.7%
8,S=C(N/N=C/c1cccc2ccccc12)Nc1cccc(Cl)c1,active: -53.8%
9,NNc1nc(Nc2ccccc2)nc(Nc2ccccc2)n1,active: -52.1%
10,Cc1nnc(SCC(=O)N/N=C/c2cn(-c3ccccc3)nc2-c2ccc(F)cc2)n1-c1ccccc1,active: -52.1%
11,Clc1ccc(N/N=C/c2cccnc2)cc1,inactive: -0.312%
12,CCOC(=O)Cc1csc(NC(=O)COc2ccc(OC)cc2)n1,inconclusive: -30.5%
13,O=C(N/N=C/c1ccc(OC(=O)c2ccccc2)c([N+](=O)[O-])c1)c1ccc(O)cc1,inactive: -24.5%
14,COC1(OC)N=C(N)C2(C#N)C(c3ccc(C)cc3)C12C#N (stereo unspecified),inconclusive: -30.7%
15,CCc1cc(Cn2nc(-c3ccccc3)cc2C(=O)NCc2cccc(C(F)(F)F)c2)on1,inconclusive: -31.3%
16,CCN(CC(=O)NCc1cccs1)S(=O)(=O)c1cccc(C(C)=O)c1,inconclusive: -38.8%
17,CC1CCN(CC(O)COCCC23CC4CC(CC(C4)C2)C3)CC1 (stereo unspecified),active: -57.4%
18,CCn1c(C(=O)NC(C)c2ccc3c(c2)OCCO3)cc2sccc21 (stereo unspecified),inconclusive: -49.8%
19,CCOC(=O)CNC(c1ccccc1)c1cc(Br)ccc1NC(=O)CCN1CCOCC1 (stereo unspecified),inconclusive: -40.7%
20,c1ccc2c(c1)c1c(c3ccccc32)CN2CCCC2C1 (stereo unspecified),inconclusive: -45.1%
21,COc1ccc(/C(C)=N/Nc2nccnc2Cl)cc1,inconclusive: -32.8%
22,COc1ccc(C2=CC(=O)N(Nc3ccccc3)C2=O)cc1,active: -62.2%
23,COc1ccc2ccccc2c1-c1sc(Nc2ccccc2)n[n+]1-c1ccc(F)cc1,active: -80.2%

row,Structure (SMILES),"max response, negative = inhibition"
1,Cc1oc(-c2cccc(F)c2)nc1CN1CCCCC1CCc1ccccn1 (stereo unspecified),inconclusive: -44.3%
2,Cc1cc(NS(=O)(=O)c2ccc(NC(=O)c3c(F)c(F)c(F)c(F)c3F)cc2)nc(C)n1,inactive: -4.56%
3,CCn1ccnc1CNC(=O)c1ccc2oc(CCCc3ccccc3)nc2c1,active: -51.4%
4,CCCCOc1[nH]c2nc(-c3ccco3)n(Cc3ccco3)c(=N)c2c1C#N,inconclusive: -46.1%
5,CCOC(=O)C1=C(c2ccccc2)N=C2SCC(=O)N2C1c1ccc(OC)c(OC)c1 (stereo unspecified),inconclusive: -49%
6,CSc1ccc(C2=CC(=O)C[C@H](c3ccc(Cl)cc3)C2)cc1,inactive: 0%
7,CN(C)C(CNC(=O)CSc1nc2sc3c(c2c(=O)n1C)CCCC3)c1ccccc1 (stereo unspecified),inactive: -2.9%
8,Cn1cc([N+](=O)[O-])c(C(=O)Nc2ccc3nc(-c4ccccc4)[nH]c3c2)n1,inconclusive: -33.8%
9,COc1ccc(Cn2c(=O)oc3ccccc32)cc1,inconclusive: -30.4%
10,Cc1ccc(N/C(N)=N/c2nc3c(c(=O)[nH]2)CCCC3)c(C)c1,inconclusive: -36.1%
11,COc1ccc(-c2cc(-c3ccccc3)no2)cc1,inactive: 19.7%
12,CCN(CC)CCNc1ccc(C)c2sc3ccc(O)cc3c(=O)c12,inactive: -11.2%
13,CCOc1ccc(S(=O)(=O)N2CCOCC2)cc1NS(=O)(=O)c1ccc(OC)c([N+](=O)[O-])c1,inconclusive: -43.4%
14,O=C(NC(=S)NC1CCSC1=O)c1cccc([N+](=O)[O-])c1 (stereo unspecified),inconclusive: -35.2%
15,Cc1cccc(NS(=O)(=O)c2ccc3oc(=O)ccc3c2)c1C,inconclusive: -32.1%
16,Cc1cnc(C2OCCO2)c2cccc(N)c12,inconclusive: -30.3%
17,COc1ccc(C2=C/C(=C/c3cccnc3)C(=O)O2)cc1OC,inactive: -7.35%
18,Cc1cc(Nc2cccc([N+](=O)[O-])c2)n2c(nc3ccccc32)c1C#N,active: -93.1%
19,CN(/N=C/c1ccc(O)cc1O)c1nc(-c2ccccc2)cc(-c2ccccc2)n1,inconclusive: -34.1%
20,Cc1ccc(SC(CC(=O)c2ccc(C(C)(C)C)cc2)C(=O)O)cc1 (stereo unspecified),active: -80.7%
21,COc1ccc(C(CCN2CCCC2)c2c(OC)cc(OC)c3c(-c4ccccc4)cc(=O)oc23)cc1 (stereo unspecified),inactive: 11.5%
22,Cc1cccc(-n2cc(CNCCc3nc(C)cc(C)n3)c(-c3cccc(F)c3)n2)c1,inconclusive: -34.7%
23,Cc1nn(-c2ccccc2)c2sc(C(=O)NCCN3CCOCC3)cc12,active: -71%

row,Structure (SMILES),"max response, negative = inhibition"
1,CCCC(=O)N1CCCC(C(=O)c2cccc(OC(C)C)c2)C1 (stereo unspecified),inconclusive: -41.1%
2,CCCS(=O)(=O)c1c(S(=O)(=O)CCC)c2c(N)cccn2c1C(=O)c1ccc(Br)cc1,inactive: 0.112%
3,COc1ccc(C(=O)N2CCN(CCCc3ccccc3)CC2)cc1OC,inconclusive: -42.9%
4,CCc1ccc2nc(SCC(=O)N3CCCCC3)c(C#N)cc2c1,inconclusive: -49.6%
5,c1ccc(-n2ncc3c(NCCCN4CCOCC4)ncnc32)cc1,inconclusive: -36%
6,Clc1ccccc1OCCN1CCCCC1,active: -79.8%
7,Cc1cccc(NS(=O)(=O)c2cccc(C(=O)NCC(C)(C)N3CCOCC3)c2)c1,active: -81%
8,Cc1ccc(/C=C2/CNC/C(=C/c3ccc(C)cc3)C2=O)cc1,active: -50.8%
9,COc1cccc2c1OC1(C)CC2NC(=O)N1c1cccc(C(=O)Nc2ccc3c(c2)OCCO3)c1 (stereo unspecified),inactive: 12.4%
10,CCN1CCN(CC(=O)Nc2ccc(OC(F)(F)F)cc2)CC1,inconclusive: -34.2%
11,CCN(CC)CCNc1oc(-c2ccccc2)nc1S(=O)(=O)c1ccccc1,active: -76.3%
12,CCCCN1C(=O)C(CC(=O)NC2CCCCC2)CC(C(=O)N2CCOCC2)=C1C (stereo unspecified),active: -53.5%
13,O=C(NNc1nc2c(F)cccc2s1)c1cc(=O)c2ccccc2o1,inconclusive: -38.2%
14,CN1CCN(C2=Cc3ccccc3Sc3cc(F)c(Cl)cc32)CC1,inconclusive: -38.3%
15,COc1ccc(OC)c(C(=O)c2ccccc2)c1,inactive: -5.82%
16,COC(=O)CCN1CCC2CC1c1cc(N3CCCCC3)ccc12 (stereo unspecified),inconclusive: -39.4%
17,Cn1c(CCN2CCCC2)nc2cc(NS(=O)(=O)c3ccccc3)ccc21,inconclusive: -31.4%
18,Cc1ccc2cccc(SCC(=O)N3CCOCC3)c2n1,inconclusive: -35.1%
19,COc1cc(C(C)=O)ccc1OCC(O)CN1CCN(c2cc(C)cc(C)c2)CC1 (stereo unspecified),active: -55.5%
20,c1ccc2c(CNc3ccc(CNc4ncn[nH]4)cc3)cccc2c1,inconclusive: -34.7%
21,COc1cc(C2Nc3ccc4ncccc4c3C3=C2C(=O)CCC3)ccc1O (stereo unspecified),inconclusive: -45.9%
22,CC(O)(c1ccc(F)c(F)c1)c1nc(-c2ccc3ccccc3c2)cs1 (stereo unspecified),active: -55.6%
23,Cc1ccc(NC(=O)n2ncc3c(C)cccc32)c(C)c1,inactive: 0.738%

# Part of the list above, bar-delimited:
row | Structure (SMILES) | max response, negative = inhibition
22 | Cc1cccc(-n2cc(CNCCc3nc(C)cc(C)n3)c(-c3cccc(F)c3)n2)c1 | inconclusive: -34.7%
23 | Cc1nn(-c2ccccc2)c2sc(C(=O)NCCN3CCOCC3)cc12 | active: -71%
1 | CCCC(=O)N1CCCC(C(=O)c2cccc(OC(C)C)c2)C1 (stereo unspecified) | inconclusive: -41.1%
2 | CCCS(=O)(=O)c1c(S(=O)(=O)CCC)c2c(N)cccn2c1C(=O)c1ccc(Br)cc1 | inactive: 0.112%
3 | COc1ccc(C(=O)N2CCN(CCCc3ccccc3)CC2)cc1OC | inconclusive: -42.9%
4 | CCc1ccc2nc(SCC(=O)N3CCCCC3)c(C#N)cc2c1 | inconclusive: -49.6%
5 | c1ccc(-n2ncc3c(NCCCN4CCOCC4)ncnc32)cc1 | inconclusive: -36%
6 | Clc1ccccc1OCCN1CCCCC1 | active: -79.8%
7 | Cc1cccc(NS(=O)(=O)c2cccc(C(=O)NCC(C)(C)N3CCOCC3)c2)c1 | active: -81%
8 | Cc1ccc(/C=C2/CNC/C(=C/c3ccc(C)cc3)C2=O)cc1 | active: -50.8%
9 | COc1cccc2c1OC1(C)CC2NC(=O)N1c1cccc(C(=O)Nc2ccc3c(c2)OCCO3)c1 (stereo unspecified) | inactive: 12.4%
10 | CCN1CCN(CC(=O)Nc2ccc(OC(F)(F)F)cc2)CC1 | inconclusive: -34.2%
11 | CCN(CC)CCNc1oc(-c2ccccc2)nc1S(=O)(=O)c1ccccc1 | active: -76.3%
12 | CCCCN1C(=O)C(CC(=O)NC2CCCCC2)CC(C(=O)N2CCOCC2)=C1C (stereo unspecified) | active: -53.5%
13 | O=C(NNc1nc2c(F)cccc2s1)c1cc(=O)c2ccccc2o1 | inconclusive: -38.2%
14 | CN1CCN(C2=Cc3ccccc3Sc3cc(F)c(Cl)cc32)CC1 | inconclusive: -38.3%
15 | COc1ccc(OC)c(C(=O)c2ccccc2)c1 | inactive: -5.82%
16 | COC(=O)CCN1CCC2CC1c1cc(N3CCCCC3)ccc12 (stereo unspecified) | inconclusive: -39.4%
17 | Cn1c(CCN2CCCC2)nc2cc(NS(=O)(=O)c3ccccc3)ccc21 | inconclusive: -31.4%
18 | Cc1ccc2cccc(SCC(=O)N3CCOCC3)c2n1 | inconclusive: -35.1%
19 | COc1cc(C(C)=O)ccc1OCC(O)CN1CCN(c2cc(C)cc(C)c2)CC1 (stereo unspecified) | active: -55.5%
20 | c1ccc2c(CNc3ccc(CNc4ncn[nH]4)cc3)cccc2c1 | inconclusive: -34.7%
21 | COc1cc(C2Nc3ccc4ncccc4c3C3=C2C(=O)CCC3)ccc1O (stereo unspecified) | inconclusive: -45.9%
22 | CC(O)(c1ccc(F)c(F)c1)c1nc(-c2ccc3ccccc3c2)cs1 (stereo unspecified) | active: -55.6%
23 | Cc1ccc(NC(=O)n2ncc3c(C)cccc32)c(C)c1 | inactive: 0.738%

# Following part.

row,Structure (SMILES),"max response, negative = inhibition"
1,C=CCn1c(-c2ccc(C)cc2)nc2ccccc21,inactive: -10.1%
2,COc1cc(CN2CCCCCC2)cc(OC)c1OC,inconclusive: -32.2%
3,CC(/C=N/n1c(-c2ccccn2)n[nH]c1=S)=C\c1ccccc1,inconclusive: -36.6%
4,CCCC[C@@H]1Cc2[nH][nH]c(=O)c2[C@H](c2ccc3ccccc3c2)O1,inconclusive: -44.7%
5,Cc1ccc(NCc2nnc(SCCN3CCCCC3)n2CC2CCCO2)c(C)c1 (stereo unspecified),active: -54.2%
6,C1=C(c2ccccc2)CCN(c2nc3ccccc3n3cnnc23)C1,active: -70.5%
7,COCC(=O)Nc1nnc(Cc2ccc(OC)cc2)s1,inconclusive: -31.8%
8,CNC(=O)COc1coc(CN2CCN(c3ccccc3F)CC2)cc1=O,inactive: -8.84%
9,Cc1cc(S(=O)(=O)Nc2ccc3ccccc3c2)c(C)s1,inconclusive: -42.9%
10,CC1=NNC(=O)/C1=C\c1cn(-c2ccccc2)nc1-c1ccc(Cl)cc1,inconclusive: -47.8%
11,N#C/C(=C\c1ccco1)Sc1nc2ccccc2s1,inconclusive: -31.7%
12,N=c1ccn(Cc2ccccc2Cl)cc1,inconclusive: -32.5%
13,COc1ccc(-c2[nH]c(-c3ccc(Cl)cc3)nc2SCC(=O)Nc2nccs2)cc1,inconclusive: -37.9%
14,Cc1cc(C)n2nc(SCc3nnc(-c4ccccc4Br)o3)nc2n1,inactive: 0.979%
15,Cc1ccccc1NC(=O)c1cc(C(=O)c2cc(Cl)ccc2O)cn(-c2ccccc2C)c1=O,inactive: 5.96%
16,CCCCCCC1CC(CSC(=N)N)OC1=O (stereo unspecified),active: -58.6%
17,CN(C)C(=O)CSc1cccc2cccnc12,inconclusive: -42.8%
18,O=C(Cc1nc(-c2ccc(Br)s2)cs1)NCCN1CCOCC1,inconclusive: -34.1%
19,COC(=O)c1c(NC(=O)c2ccc([N+](=O)[O-])o2)sc2c1CCN(C(C)C)C2,inconclusive: -30.5%
20,NC(=O)CSc1nnc(COc2ccccc2)n1C1CCCCC1,inconclusive: -32.2%
21,CNc1oc(C)nc1S(=O)(=O)c1ccccc1,inconclusive: -34.6%
22,CCOC(=O)C1=NNC2(c3ccccc3)C(=O)N(c3cccc(Br)c3)C(=O)C12 (stereo unspecified),inconclusive: -30.5%
